According to US9759725B2, “Treatment-induced damage to the tumor micro-environment promotes cancer therapy resistance through extracellular proteins” (Fred Hutchinson Cancer Research Center, priority 2012, dated 2017):
At least one structure is not confirmed: it was looked up by name or label, or the drawing left a doubt.

Columns and labels:
[1] = tested on: prostate cancer cells; assay: MIT-resistance effect of the fibroblast DDSP toward prostate cancer cells with RAPA; format: cell-based, human
[2] = tested on: PC#/PSC27 cells; assay: Subcutaneous grafts of PC#/PSC27 cells treated with systemic RAPA and MIT; format: in vivo

Structure (SMILES): CO[C@H]1C[C@@H]2CC[C@@H](C)[C@@](O)(O2)C(=O)C(=O)N2CCCC[C@H]2C(=O)O[C@H]([C@H](C)C[C@@H]2CC[C@@H](O)[C@H](OC)C2)CC(=O)[C@H](C)/C=C(\C)[C@@H](O)[C@@H](OC)C(=O)[C@H](C)C[C@H](C)/C=C/C=C/C=C/1C [RAPA, Rapamycin]
- MIT-resistance effects of the fibroblast DDSP [1]: substantially reduced
- anti-tumor effect of RAPA alone ([2]; RAPA at the concentrations administered): no individual anti-tumor effects
- tumor inhibitory effects of MIT ([2]; systemic RAPA with MIT): significantly enhanced
